Test results from doi:10.1101/2024.01.17.575929.
These are yes or no findings as the source states them, for the method shown. In cells and extracts the contact can be indirect. Here binding means that the protein was enriched with, or labelled near, the bait; the list need not be complete.

The chains behind the UniProt entries cited, without tags or fusion partners.
UniProt O14686: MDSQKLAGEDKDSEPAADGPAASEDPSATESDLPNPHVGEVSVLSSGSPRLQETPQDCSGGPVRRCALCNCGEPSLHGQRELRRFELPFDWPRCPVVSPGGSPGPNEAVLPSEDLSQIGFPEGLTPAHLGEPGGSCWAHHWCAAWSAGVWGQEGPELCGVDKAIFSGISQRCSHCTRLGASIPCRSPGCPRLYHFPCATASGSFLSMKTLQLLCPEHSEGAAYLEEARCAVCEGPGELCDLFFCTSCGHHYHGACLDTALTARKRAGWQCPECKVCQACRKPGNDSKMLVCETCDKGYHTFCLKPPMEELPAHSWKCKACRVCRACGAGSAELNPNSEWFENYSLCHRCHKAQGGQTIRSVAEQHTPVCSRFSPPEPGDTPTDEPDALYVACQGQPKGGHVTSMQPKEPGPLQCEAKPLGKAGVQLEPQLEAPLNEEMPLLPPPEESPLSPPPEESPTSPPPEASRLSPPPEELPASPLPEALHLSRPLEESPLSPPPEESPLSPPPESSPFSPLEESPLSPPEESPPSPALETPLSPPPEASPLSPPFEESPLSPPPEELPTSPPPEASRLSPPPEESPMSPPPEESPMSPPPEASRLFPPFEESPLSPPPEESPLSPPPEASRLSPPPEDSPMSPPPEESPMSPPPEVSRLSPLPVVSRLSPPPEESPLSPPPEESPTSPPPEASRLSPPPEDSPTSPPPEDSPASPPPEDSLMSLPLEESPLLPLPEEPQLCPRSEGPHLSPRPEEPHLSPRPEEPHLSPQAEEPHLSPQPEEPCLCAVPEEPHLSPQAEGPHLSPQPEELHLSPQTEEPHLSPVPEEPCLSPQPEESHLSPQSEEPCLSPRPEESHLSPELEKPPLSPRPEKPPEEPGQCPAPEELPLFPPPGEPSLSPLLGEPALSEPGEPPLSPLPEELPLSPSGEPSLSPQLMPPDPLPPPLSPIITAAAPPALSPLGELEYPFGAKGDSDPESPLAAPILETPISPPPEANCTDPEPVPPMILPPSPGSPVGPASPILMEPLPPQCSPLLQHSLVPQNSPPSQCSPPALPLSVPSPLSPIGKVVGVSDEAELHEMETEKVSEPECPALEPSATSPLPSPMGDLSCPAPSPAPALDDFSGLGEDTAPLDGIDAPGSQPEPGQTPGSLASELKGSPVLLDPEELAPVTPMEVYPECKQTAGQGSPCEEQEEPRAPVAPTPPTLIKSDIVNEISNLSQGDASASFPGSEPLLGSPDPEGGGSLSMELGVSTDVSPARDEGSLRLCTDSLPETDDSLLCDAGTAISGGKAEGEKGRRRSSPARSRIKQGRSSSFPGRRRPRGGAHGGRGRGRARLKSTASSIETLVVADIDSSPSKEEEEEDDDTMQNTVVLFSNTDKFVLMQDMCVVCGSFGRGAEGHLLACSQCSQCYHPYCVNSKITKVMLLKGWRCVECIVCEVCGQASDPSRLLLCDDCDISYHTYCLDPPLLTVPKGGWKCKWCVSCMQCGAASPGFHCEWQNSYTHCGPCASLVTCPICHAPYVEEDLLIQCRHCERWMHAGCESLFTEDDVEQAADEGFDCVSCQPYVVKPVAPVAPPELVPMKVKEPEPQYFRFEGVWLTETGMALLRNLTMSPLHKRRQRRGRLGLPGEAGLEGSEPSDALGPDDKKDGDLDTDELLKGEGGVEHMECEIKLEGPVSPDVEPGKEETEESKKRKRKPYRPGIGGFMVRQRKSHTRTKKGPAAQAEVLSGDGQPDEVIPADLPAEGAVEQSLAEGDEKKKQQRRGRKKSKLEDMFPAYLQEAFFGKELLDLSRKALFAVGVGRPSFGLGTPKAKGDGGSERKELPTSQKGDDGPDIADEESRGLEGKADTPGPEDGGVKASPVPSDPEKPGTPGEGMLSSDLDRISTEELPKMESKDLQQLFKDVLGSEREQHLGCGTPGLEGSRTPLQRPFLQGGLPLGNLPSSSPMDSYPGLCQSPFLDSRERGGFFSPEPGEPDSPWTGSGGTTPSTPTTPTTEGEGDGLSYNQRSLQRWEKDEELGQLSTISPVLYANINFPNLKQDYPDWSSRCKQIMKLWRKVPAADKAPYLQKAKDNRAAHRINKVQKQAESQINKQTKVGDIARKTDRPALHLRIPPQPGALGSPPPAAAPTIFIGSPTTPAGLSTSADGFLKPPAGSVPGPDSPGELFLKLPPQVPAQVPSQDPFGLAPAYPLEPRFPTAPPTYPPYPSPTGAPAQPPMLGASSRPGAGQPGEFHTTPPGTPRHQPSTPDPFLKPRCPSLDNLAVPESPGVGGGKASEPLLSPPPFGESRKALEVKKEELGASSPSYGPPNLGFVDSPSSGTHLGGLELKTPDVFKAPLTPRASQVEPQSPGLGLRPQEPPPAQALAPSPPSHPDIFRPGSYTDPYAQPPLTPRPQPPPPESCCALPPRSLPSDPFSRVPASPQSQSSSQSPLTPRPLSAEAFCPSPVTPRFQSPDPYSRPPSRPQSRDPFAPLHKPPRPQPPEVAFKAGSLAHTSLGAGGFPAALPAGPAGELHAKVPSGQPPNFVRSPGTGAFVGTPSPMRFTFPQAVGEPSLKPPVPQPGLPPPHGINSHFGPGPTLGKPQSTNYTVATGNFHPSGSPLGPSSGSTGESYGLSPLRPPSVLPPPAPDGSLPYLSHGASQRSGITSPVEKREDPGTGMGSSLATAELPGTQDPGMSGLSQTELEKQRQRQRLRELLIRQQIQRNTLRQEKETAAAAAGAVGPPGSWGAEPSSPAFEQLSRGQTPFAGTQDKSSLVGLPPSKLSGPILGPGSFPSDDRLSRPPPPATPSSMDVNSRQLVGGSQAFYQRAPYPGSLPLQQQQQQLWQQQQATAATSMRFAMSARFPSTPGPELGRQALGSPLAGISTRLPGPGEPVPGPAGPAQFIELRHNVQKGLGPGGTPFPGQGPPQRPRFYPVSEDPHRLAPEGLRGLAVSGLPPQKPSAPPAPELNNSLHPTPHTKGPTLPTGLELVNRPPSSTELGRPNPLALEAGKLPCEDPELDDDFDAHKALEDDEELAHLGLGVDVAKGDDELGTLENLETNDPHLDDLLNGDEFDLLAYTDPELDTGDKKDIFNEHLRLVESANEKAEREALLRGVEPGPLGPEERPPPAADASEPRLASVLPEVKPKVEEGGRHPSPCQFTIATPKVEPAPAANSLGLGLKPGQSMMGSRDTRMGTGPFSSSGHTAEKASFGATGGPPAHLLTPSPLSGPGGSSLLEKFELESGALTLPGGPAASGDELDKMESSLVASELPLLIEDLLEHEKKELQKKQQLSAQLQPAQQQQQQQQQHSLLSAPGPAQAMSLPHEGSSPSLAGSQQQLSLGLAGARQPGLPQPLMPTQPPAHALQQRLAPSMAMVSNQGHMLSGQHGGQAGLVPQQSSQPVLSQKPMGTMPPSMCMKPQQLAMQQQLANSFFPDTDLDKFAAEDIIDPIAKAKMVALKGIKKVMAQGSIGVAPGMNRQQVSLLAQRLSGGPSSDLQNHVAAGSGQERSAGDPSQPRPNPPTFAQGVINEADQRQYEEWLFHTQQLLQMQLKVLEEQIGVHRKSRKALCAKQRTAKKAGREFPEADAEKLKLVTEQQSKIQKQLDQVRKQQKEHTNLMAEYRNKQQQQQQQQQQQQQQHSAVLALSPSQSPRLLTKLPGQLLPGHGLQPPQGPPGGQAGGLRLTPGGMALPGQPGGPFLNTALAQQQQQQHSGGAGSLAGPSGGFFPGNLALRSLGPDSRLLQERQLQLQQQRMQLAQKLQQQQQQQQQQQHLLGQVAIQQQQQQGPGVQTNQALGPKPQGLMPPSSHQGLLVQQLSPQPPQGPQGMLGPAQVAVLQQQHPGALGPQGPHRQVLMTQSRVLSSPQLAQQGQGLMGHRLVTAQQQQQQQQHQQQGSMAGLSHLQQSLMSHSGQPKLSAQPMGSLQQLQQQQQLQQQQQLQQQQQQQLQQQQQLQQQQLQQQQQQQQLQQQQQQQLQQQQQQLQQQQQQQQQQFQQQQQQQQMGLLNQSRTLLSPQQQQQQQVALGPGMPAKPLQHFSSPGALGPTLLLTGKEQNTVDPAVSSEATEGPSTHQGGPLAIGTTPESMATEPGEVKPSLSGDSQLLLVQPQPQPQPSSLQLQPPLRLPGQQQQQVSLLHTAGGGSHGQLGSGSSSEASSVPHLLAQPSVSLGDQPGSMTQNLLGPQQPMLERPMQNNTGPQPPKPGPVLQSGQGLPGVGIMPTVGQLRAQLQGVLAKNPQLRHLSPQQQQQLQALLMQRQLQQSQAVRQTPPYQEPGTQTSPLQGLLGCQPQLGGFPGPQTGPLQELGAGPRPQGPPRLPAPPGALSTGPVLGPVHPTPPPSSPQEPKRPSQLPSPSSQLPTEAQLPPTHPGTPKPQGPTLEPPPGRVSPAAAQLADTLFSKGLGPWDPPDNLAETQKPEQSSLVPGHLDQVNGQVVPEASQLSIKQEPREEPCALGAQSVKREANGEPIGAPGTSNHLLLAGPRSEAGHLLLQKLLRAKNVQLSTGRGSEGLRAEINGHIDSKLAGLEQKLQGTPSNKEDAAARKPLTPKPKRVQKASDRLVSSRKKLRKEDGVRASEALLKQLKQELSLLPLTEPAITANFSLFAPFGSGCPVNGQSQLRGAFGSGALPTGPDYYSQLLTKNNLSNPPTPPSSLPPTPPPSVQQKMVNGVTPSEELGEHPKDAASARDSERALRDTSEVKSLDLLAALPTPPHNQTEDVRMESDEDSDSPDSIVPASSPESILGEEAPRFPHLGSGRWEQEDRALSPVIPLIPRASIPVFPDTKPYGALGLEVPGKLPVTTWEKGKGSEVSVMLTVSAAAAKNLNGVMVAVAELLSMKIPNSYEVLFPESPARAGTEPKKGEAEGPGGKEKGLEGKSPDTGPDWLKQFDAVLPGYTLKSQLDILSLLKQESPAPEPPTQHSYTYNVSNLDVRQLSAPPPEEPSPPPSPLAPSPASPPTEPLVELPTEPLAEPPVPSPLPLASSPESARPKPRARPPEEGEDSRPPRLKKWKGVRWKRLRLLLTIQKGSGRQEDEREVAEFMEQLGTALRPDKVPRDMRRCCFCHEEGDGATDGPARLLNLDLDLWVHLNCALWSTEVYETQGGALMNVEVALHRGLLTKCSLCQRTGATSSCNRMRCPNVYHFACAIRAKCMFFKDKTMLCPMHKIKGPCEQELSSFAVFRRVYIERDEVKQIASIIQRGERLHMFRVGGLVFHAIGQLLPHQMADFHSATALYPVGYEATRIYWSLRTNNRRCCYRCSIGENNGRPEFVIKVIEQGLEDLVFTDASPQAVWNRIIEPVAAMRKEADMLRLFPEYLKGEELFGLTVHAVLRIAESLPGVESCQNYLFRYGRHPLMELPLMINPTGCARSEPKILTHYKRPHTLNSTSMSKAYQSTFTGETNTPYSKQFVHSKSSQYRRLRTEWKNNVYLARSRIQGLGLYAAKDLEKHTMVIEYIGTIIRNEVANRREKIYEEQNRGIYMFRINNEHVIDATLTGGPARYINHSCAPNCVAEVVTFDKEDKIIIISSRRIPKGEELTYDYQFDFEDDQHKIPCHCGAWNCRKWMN

B1: O-GlcNAc transferase (protein, UniProt O15294 1-1046)
chain: MASSVGNVADSTEPTKRMLSFQGLAELAHREYQAGDFEAAERHCMQLWRQEPDNTGVLLLLSSIHFQCRRLDRSAHFSTLAIKQNPLLAEAYSNLGNVYKERGQLQEAIEHYRHALRLKPDFIDGYINLAAALVAAGDMEGAVQAYVSALQYNPDLYCVRSDLGNLLKALGRLEEAKACYLKAIETQPNFAVAWSNLGCVFNAQGEIWLAIHHFEKAVTLDPNFLDAYINLGNVLKEARIFDRAVAAYLRALSLSPNHAVVHGNLACVYYEQGLIDLAIDTYRRAIELQPHFPDAYCNLANALKEKGSVAEAEDCYNTALRLCPTHADSLNNLANIKREQGNIEEAVRLYRKALEVFPEFAAAHSNLASVLQQQGKLQEALMHYKEAIRISPTFADAYSNMGNTLKEMQDVQGALQCYTRAIQINPAFADAHSNLASIHKDSGNIPEAIASYRTALKLKPDFPDAYCNLAHCLQIVCDWTDYDERMKKLVSIVADQLEKNRLPSVHPHHSMLYPLSHGFRKAIAERHGNLCLDKINVLHKPPYEHPKDLKLSDGRLRVGYVSSDFGNHPTSHLMQSIPGMHNPDKFEVFCYALSPDDGTNFRVKVMAEANHFIDLSQIPCNGKAADRIHQDGIHILVNMNGYTKGARNELFALRPAPIQAMWLGYPGTSGALFMDYIITDQETSPAEVAEQYSEKLAYMPHTFFIGDHANMFPHLKKKAVIDFKSNGHIYDNRIVLNGIDLKAFLDSLPDVKIVKMKCPDGGDNADSSNTALNMPVIPMNTIAEAVIEMINRGQIQITINGFSISNGLATTQINNKAATGEEVPRTIIVTTRSQYGLPEDAIVYCNFNQLYKIDPSTLQMWANILKRVPNSVLWLLRFPAVGEPNIQQYAQNMGLPQNRIIFSPVAPKEEHVRRGQLADVCLDTPLCNGHTTGMDVLWAGTPMVTMPGETLASRVAASQLTCLGCLELIAKNRQEYEDIAVKLGTDLEYLKKVRGKVWKQRISSPLFNTKQYTMELERLYLQMWEHYAAGNKPDHMIKPVEVTESA

Each molecule was assayed against KMT2D (human (endogenous in HEK293A)) (UniProt O14686) (assay: affinity purification with mass spectrometry).

binding, binds:
MSH6 (from UniProt P52701 1-1360)
STAG2 (from UniProt Q8N3U4 1-1231)
B1
